# Source: article PMC5996148
# Chains of the proteins cited; added tags and fusions are not shown. Lines headed by an entry give the natural chain unless they say otherwise; changes in a name come on top.
# UniProt P20849: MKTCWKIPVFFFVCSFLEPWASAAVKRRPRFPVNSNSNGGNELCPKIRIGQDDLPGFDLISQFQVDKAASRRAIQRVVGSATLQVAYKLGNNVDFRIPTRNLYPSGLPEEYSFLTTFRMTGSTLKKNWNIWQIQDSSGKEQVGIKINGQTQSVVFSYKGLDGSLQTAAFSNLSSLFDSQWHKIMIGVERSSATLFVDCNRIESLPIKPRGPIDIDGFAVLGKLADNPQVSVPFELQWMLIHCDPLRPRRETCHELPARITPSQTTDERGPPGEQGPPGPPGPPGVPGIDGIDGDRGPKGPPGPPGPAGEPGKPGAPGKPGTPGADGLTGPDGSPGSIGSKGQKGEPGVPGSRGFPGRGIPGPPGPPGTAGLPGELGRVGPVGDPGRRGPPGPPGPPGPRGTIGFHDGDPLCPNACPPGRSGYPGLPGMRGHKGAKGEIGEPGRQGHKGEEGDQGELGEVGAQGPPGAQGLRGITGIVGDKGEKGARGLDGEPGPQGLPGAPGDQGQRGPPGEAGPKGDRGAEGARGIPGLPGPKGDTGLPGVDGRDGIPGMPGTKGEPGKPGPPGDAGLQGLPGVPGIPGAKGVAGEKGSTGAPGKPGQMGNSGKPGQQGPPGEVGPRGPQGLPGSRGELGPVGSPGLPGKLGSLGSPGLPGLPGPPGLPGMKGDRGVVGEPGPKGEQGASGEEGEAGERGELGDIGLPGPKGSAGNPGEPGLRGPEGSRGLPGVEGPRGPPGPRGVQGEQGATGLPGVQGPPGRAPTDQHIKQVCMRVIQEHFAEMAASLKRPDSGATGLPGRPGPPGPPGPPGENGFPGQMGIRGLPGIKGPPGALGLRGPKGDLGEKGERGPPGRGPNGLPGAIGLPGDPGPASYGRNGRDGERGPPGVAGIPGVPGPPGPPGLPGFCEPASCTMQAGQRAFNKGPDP
# Several values for one entry are separate records, joined by “and”; a condition that tells them apart may be missing. Identical values can stand only once. The list shows a part of the results. For some assays here: The source does not settle which construct or isoform was used.
# Tests used:
# Test in all cases: protein microarray (ProtoArray v5.0), streptavidin-Alexa Fluor 647
# Settings in all cases: 3'-biotin; 20 mM Tris (pH 7.5), 5 mM MgCl2, 100 mM KCl, 0.1% Tween-20, A/T-rich and random oligonucleotide blockers; temperature not stated; high values mean tight binding
# COL4A3BP (human) = system: COL4A3BP (human)
# COL4A6 (human) = system: COL4A6 (human)
# COL9A1 = COL9A1 (UniProt P20849)
# COMMD1 (human) = system: COMMD1 (human)
# COMMD10 (human) = system: COMMD10 (human)
# COMMD4 (human) = system: COMMD4 (human)
# COMT (human) = system: COMT (human)
# COMTD1 (human) = system: COMTD1 (human)
# COPB2 (human) = system: COPB2 (human)
# COPS2 (human) = system: COPS2 (human)
# COPS5 (human) = system: COPS5 (human)
# COPZ1 (human) = system: COPZ1 (human)
# COQ3 (human) = system: COQ3 (human)
# COQ6 (human) = system: COQ6 (human)
# COTL1 (human) = system: COTL1 (human)
# COX15 (human) = system: COX15 (human)
# COX4I1 (human) = system: COX4I1 (human)
# COX4I2 (human) = system: COX4I2 (human)
# COX5B (human) = system: COX5B (human)
# CPA1 (human) = system: CPA1 (human)
sequence,measurement,setting,value
GGGAGGCTGAGGCAGG [G4-1 biotinylated (PQS2)],binding signal,COL4A3BP (human),-0.343 z-score
same,binding signal,COL4A6 (human),-0.321 z-score and -0.31 z-score
same,binding signal,COL9A1,-0.28 z-score
same,binding signal,COMMD1 (human),-0.32 z-score
same,binding signal,COMMD10 (human),-0.266 z-score
same,binding signal,COMMD4 (human),-0.282 z-score
same,binding signal,COMT (human),-0.329 z-score and -0.337 z-score and -0.242 z-score
same,binding signal,COMTD1 (human),-0.328 z-score
same,binding signal,COPB2 (human),-0.325 z-score
same,binding signal,COPS2 (human),-0.344 z-score
same,binding signal,COPS5 (human),-0.32 z-score
same,binding signal,COPZ1 (human),-0.344 z-score
same,binding signal,COQ3 (human),-0.296 z-score
same,binding signal,COQ6 (human),-0.338 z-score
same,binding signal,COTL1 (human),-0.279 z-score
same,binding signal,COX15 (human),-0.275 z-score
same,binding signal,COX4I1 (human),-0.307 z-score
same,binding signal,COX4I2 (human),-0.35 z-score
same,binding signal,COX5B (human),-0.326 z-score
same,binding signal,CPA1 (human),-0.297 z-score
